Source: article PMC11132869

Protein sequences, listed by entry. Tags and fused reporters are not part of them. Residues count along the entry.
UniProt Q10M41, 1-350: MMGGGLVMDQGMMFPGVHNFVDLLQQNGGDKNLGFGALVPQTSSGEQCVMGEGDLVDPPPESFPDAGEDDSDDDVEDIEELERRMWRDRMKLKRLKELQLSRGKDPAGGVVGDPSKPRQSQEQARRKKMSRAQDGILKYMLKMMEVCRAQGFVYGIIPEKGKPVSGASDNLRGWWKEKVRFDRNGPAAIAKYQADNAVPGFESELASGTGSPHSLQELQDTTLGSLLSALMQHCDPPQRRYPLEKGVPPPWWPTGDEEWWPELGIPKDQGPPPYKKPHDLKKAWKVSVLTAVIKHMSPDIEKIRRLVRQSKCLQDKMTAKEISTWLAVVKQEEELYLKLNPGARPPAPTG

Molecular target: GST-EIL1-N (OsEIL1 N-terminal) (Oryza sativa) (UniProt Q10M41)
Experiment: EMSA
Details: competed by excess unlabeled probe; LightShift Chemiluminescent EMSA Kit; 20 min at room temperature; 5% native polyacrylamide gel; salt and pH not stated; recombinant protein; residues 1-350; protein details: GST; label: biotin end label

Binding result, binds:
ACAAATACTCACCGTACATGTACGGACTCACTCATATCCC (double strand) [OsWOX11-Probe 1]
GAAAATGACATATACAGTACATCATGTACTCCAACTAATAATTAACAACA (double strand) [OsWOX11-Probe 3]
ATACTAGGGATATTCCGATTAATGTACACGTGCCTTCAATTATA (double strand) [OsWOX11-Probe 2]

Construct, isoform or probe ends are uncertain for at least one entry. At least one verdict rests on a figure or table, not on a statement of the authors.
